Experiment: Tracer dose biodistribution in xenografted PC3 tumor-bearing mice
Settings: Lu-177 labelled compound, 200 μCi/kg i.v., PC3 tumor-bearing nude mice
Protocol: In all studies, mice were administered 100 μL of ^177Lu-labelled test compound at 200 μCi/kg, i.v., with a residence time of 1 and 24 h per group (n=3-4). Tissues were analyzed in an LKB 1282 CompuGamma counter with appropriate standards.

## CSCC[C@H](NC(=O)[C@H](CC(C)C)NC(=O)[C@H](Cc1cnc[nH]1)NC(=O)CNC(=O)[C@@H](NC(=O)[C@H](C)NC(=O)[C@H](Cc1c[nH]c2ccccc12)NC(=O)[C@H](CCC(N)=O)NC(=O)CCCCCCCNC(=O)CN1CCN(CC(=O)O)CCN(CC(=O)O)CCN(CC(=O)O)CC1)C(C)C)C(N)=O [Compound L134, DO3A monoatnide-aminooctanyl-BBN[7-14]]
kidneys, 1 h
  Kidneys, 1 hr: 7.65 % ID/g
kidneys, 24 h
  Kidneys, 24 hr: 1.03 % ID/g
pancreas, 1 h
  Pancreas, 1 hr: 28.60 % ID/g
pancreas, 24 h
  Pancreas, 24 hr: 1.01 % ID/g
tumor, 1 h
  Tumor, 1 hr: 3.66 % ID/g
tumor, 24 h
  Tumor, 24 hr: 1.52 % ID/g
